Laboratory results published in patent US20110250613A1, “Arrayed Multiple Ubiquitin Binding Domains as Linkage-specific Polyubiquitin Affinity Reagents” (THE JOHNS HOPKINS UNIVERSITY, priority 2009, published 2011).

Assay: CD measurements of helical content of tUIM peptides
Assay type: physicochemical
Conditions: CD at 5° C.
Procedure: Measurements of 3 samples were collected and are shown in FIG. 2D: (1) 153 μM Rap80 tUIM alone, (2) 153 μM K63-Ub2 alone, and (3) a mixture of 153 μM Rap80 tUIM with 153 μM K63-Ub2. The contribution of Rap80 tUIM to spectrum (3) was sought, so that the helical content of the bound tUIM could be estimated. […] Therefore, the difference between spectrum (3) and spectrum (2) will give the contribution from Rap80 tUIM to the total CD spectrum of the Rap80-K63-Ub2 mixture. (A) The spectrum of unbound Rap80 [spectrum (1)] is shown here as triangles. The contribution of Rap80 to spectrum (3) was calculated as (3)−(2), and is shown here as squares. Because the mixture of Rap80 with K63-Ub2 is not at saturating concentrations, bound and unbound Rap80 are both present in the solution. The observed helical fraction (Hmix) for this complex mixture can be described by:
Where Fbound and Funbound are the fractions of the bound and unbound forms of Rap80 present in the mixture, respectively, and Hbound and Hunbound are the helical contents of the bound and unbound forms of Rap80, respectively. […] (B) Shown here is a summary of the secondary structure predictions from two methods and the corresponding Hbound values calculated as described above. […]
CD Measurements. […] Peptide concentrations were independently determined before each CD reading from absorbance measurements (fluorescein) of samples in the CD cuvette.

Molecule | θ222 nm
Rap80 (WT): His6-tagged human Rap80 tandem UIM peptide, linker REVNSQE, fluorescein-labeled on C121; sequence in Table 1 (protein) peptide: PSSHHHHHHSSGLVPRGSHMTEEEQFALALKMSEQEAREVNSQEEEEEELLRKAIAESLNSCRPS | 19245 deg cm^2 dmol^−1
Rap80 S101A: Rap80 tUIM peptide, linker REVNAQE (protein) peptide: PSSHHHHHHSSGLVPRGSHMTEEEQFALALKMSEQEAREVNAQEEEEEELLRKAIAESLNSCRPS | 20383 deg cm^2 dmol^−1
